The text below walks through data of the supplement of paper PMC11006884.

Sequences of proteins named here, by UniProt entry; tags and fusion partners are left off. A change or cut given only in a name is not applied to a line headed by its entry.
UniProt Q5JTH9: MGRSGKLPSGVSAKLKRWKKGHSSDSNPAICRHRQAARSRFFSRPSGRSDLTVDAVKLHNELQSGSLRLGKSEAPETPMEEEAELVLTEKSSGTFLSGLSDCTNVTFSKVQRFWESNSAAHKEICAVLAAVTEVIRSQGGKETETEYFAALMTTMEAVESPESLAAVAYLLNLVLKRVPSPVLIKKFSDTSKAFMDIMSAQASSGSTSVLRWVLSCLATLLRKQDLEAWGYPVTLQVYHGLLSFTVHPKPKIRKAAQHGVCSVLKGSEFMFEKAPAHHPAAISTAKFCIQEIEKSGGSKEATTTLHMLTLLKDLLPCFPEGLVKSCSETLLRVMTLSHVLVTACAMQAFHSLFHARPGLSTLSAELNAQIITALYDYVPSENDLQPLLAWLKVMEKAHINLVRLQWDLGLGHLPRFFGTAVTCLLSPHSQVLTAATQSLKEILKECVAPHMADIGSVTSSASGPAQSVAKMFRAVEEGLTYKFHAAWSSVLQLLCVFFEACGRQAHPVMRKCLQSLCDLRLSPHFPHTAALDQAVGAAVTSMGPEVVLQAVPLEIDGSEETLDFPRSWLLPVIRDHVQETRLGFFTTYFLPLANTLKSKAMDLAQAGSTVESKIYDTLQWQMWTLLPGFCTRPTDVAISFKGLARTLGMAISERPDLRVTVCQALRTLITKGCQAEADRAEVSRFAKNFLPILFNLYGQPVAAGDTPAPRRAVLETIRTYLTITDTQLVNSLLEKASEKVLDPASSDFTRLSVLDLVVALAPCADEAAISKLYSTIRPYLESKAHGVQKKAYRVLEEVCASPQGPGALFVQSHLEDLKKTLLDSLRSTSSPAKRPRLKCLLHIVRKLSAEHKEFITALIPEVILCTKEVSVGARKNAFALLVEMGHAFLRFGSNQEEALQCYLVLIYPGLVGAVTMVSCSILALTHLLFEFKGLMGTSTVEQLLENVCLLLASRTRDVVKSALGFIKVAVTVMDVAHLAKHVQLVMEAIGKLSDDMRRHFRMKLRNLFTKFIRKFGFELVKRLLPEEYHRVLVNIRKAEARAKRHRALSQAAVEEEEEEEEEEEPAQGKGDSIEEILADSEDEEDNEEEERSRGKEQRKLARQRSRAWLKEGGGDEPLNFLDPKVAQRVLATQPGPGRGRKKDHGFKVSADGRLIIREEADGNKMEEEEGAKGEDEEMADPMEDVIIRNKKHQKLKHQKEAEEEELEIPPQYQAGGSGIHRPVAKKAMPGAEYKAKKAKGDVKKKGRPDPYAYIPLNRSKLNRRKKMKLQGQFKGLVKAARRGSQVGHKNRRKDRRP
UniProt Q6KC79: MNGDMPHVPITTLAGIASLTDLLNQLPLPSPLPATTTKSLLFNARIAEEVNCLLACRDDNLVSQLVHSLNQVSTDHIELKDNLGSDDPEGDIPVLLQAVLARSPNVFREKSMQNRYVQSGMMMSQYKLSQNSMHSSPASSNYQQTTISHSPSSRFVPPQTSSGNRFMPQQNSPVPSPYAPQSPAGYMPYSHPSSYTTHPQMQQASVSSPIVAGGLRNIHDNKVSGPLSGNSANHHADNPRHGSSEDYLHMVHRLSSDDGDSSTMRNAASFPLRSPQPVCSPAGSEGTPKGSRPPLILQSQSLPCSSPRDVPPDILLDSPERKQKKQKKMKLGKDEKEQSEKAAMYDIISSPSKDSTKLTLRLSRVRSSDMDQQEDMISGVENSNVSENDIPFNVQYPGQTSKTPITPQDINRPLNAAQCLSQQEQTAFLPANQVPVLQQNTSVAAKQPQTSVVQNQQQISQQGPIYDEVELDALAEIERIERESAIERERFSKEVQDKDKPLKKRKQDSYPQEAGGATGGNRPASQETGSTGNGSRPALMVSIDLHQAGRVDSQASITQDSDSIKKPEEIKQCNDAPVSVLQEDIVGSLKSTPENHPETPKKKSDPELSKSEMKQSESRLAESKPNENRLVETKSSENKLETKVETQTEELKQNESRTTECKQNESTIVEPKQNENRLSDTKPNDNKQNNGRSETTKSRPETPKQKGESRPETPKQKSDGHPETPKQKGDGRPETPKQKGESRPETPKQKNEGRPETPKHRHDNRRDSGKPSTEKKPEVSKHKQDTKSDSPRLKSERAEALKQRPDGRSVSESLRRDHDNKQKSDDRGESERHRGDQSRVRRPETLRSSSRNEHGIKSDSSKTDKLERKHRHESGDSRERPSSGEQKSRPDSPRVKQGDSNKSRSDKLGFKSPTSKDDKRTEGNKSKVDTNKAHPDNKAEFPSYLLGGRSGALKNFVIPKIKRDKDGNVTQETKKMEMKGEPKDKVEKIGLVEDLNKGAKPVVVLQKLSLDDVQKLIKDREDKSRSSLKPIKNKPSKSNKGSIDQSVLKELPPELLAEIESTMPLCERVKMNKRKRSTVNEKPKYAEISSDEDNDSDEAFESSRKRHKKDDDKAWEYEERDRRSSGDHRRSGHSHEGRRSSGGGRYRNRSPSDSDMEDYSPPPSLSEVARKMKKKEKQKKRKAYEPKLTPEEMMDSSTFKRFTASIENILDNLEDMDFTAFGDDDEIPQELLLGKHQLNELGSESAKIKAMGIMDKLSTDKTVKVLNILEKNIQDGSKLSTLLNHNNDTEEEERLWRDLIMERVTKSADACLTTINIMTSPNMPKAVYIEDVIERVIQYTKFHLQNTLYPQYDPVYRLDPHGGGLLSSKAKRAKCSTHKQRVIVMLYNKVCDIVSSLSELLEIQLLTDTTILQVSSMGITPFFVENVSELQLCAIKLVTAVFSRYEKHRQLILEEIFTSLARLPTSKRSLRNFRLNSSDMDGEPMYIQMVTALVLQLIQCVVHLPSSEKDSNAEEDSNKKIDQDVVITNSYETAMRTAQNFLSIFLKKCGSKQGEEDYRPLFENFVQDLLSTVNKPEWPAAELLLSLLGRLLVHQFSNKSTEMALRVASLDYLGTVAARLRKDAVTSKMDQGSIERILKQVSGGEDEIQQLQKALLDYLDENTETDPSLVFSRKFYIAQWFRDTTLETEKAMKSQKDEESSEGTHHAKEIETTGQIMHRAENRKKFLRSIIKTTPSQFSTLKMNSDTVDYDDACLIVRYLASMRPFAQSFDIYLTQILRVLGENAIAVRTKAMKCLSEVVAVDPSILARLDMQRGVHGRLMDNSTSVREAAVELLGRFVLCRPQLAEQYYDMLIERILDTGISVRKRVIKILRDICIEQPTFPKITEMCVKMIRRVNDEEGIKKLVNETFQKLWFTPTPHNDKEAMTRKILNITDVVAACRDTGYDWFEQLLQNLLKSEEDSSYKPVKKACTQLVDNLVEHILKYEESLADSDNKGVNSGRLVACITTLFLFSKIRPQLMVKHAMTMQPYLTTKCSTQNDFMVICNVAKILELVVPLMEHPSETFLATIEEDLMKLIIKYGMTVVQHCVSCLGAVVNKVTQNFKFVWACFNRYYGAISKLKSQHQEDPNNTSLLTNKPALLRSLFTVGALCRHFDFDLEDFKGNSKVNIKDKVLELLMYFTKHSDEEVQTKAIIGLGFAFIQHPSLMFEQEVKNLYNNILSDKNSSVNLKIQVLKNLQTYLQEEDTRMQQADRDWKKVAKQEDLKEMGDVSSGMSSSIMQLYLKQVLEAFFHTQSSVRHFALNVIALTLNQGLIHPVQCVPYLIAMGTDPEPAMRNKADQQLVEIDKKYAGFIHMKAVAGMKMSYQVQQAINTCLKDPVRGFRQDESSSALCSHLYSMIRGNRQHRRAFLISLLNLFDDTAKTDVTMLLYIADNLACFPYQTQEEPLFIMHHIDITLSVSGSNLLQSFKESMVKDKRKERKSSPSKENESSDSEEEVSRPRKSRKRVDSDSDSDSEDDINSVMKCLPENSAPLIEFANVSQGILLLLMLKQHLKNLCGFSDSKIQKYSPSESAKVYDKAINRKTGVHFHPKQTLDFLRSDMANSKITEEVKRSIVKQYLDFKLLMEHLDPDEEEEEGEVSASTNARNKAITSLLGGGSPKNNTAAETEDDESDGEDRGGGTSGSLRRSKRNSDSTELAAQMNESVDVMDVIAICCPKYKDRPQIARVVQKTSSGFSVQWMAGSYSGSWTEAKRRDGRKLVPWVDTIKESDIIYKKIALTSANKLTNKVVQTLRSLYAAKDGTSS
UniProt Q5SW79: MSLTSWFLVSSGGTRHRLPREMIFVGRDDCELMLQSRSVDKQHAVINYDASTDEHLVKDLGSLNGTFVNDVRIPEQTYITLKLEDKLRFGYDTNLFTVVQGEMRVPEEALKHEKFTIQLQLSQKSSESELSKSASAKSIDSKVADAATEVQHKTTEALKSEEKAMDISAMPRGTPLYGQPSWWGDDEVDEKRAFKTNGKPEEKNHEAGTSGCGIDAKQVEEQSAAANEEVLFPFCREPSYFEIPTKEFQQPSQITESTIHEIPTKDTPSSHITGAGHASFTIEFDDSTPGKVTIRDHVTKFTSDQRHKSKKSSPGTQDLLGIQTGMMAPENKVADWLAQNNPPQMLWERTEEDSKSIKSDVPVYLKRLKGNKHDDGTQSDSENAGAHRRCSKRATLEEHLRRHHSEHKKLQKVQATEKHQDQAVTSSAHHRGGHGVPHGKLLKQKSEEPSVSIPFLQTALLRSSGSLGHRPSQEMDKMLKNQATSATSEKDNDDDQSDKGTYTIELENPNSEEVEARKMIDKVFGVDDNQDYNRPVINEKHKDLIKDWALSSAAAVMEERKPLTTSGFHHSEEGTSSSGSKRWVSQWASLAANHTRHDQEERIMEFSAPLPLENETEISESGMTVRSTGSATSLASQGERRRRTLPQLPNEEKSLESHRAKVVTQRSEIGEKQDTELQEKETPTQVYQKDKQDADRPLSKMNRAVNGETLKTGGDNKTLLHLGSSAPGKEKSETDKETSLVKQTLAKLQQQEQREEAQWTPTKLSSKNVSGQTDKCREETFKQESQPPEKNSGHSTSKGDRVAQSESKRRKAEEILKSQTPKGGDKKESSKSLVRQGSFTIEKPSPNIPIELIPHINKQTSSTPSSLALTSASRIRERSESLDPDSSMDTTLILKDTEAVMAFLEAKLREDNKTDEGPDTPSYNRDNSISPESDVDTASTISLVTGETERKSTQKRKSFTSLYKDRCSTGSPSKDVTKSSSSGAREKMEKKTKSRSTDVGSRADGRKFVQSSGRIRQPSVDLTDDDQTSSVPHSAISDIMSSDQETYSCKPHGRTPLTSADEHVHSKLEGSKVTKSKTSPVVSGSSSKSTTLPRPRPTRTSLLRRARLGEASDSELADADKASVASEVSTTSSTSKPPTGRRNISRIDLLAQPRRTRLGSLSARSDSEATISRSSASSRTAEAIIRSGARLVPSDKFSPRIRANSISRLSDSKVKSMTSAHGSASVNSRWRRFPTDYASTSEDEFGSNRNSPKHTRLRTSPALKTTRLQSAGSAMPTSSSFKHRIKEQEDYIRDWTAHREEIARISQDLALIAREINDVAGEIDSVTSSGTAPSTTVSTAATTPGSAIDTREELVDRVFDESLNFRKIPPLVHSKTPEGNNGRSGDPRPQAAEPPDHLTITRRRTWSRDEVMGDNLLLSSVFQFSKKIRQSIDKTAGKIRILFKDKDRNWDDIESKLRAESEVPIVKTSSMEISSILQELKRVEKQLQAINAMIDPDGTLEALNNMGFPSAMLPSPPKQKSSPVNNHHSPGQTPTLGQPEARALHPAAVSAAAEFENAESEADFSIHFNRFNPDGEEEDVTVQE
UniProt Q5VSL9: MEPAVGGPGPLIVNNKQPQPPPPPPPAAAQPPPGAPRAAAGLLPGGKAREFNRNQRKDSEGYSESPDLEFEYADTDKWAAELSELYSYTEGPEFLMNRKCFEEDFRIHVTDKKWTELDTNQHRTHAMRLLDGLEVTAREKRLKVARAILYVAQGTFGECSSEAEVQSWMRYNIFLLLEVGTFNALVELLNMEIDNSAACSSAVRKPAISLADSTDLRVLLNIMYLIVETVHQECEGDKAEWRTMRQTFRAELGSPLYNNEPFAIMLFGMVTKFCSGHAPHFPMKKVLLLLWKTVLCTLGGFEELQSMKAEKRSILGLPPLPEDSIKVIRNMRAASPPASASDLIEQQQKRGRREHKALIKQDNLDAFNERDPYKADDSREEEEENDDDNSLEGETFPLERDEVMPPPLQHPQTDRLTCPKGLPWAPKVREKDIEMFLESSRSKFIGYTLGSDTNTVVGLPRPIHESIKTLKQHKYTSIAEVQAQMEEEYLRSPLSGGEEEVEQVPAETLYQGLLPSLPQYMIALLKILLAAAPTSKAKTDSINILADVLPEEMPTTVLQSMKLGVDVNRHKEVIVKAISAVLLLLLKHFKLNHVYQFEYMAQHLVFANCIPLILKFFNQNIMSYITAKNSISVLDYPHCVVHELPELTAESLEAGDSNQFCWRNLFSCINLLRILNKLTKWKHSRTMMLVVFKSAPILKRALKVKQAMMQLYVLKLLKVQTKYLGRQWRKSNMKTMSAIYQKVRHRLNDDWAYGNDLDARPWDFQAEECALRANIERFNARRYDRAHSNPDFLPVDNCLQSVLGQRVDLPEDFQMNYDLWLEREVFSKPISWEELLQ

The entries are a selection whose mix differs from that of the whole data set.

Compound in this assay: COC(=O)C#Cc1ccccc1 [methyl 3-phenylpropiolate]
Kind of assay: log2 ratio of iodoacetamide-alkyne labeling of the cysteine site, DMSO over compound (competition); higher = stronger covalent engagement of the cysteine by the compound, active = 1 or more. To be noted: 500 µM; treatment time 1 h; system: HEK293T cell lysate. The method, boiled down:
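HEK293T lysate (2 mg/mL) was treated with DMSO or electrophile (500 µM, 1 h, ambient temperature), then iodoacetamide alkyne (1 h), clicked to sCIP-TMT reagents, pooled, trypsin-digested overnight at 37 °C, streptavidin-enriched and acid-eluted. Peptides were run on Orbitrap Eclipse LC-MS/MS with FAIMS and quantified in FragPipe. The log2 competition ratio per cysteine is mean control-channel over mean compound-channel reporter intensity. Duplicate channels and three replicates were used, and cysteines quantified in only one replicate were excluded.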
Regarding CWF19L1 C288 (UniProt Q69YN2), the “log2 ratio of iodoacetamide-alkyne labeling” value (“log2 ratio” for short) is inactive: 0.57.
On to RRP12 C261 (UniProt Q5JTH9), for which the “log2 ratio” value is inactive: 0.53.
In the case of SPTY2D1 C433 (UniProt Q68D10), the “log2 ratio” value was inactive: 0.206.
Turning to UniProt Q6PJG6_C539, the “log2 ratio” value is inactive: 0.0776.
For the target TTC37 C600 (UniProt Q6PGP7), the “log2 ratio” value is inactive: 0.211.
The result for ARL6IP4 C220 (UniProt Q66PJ3) reads inactive: 0.629.
With RRP12 C799 (UniProt Q5JTH9), the “log2 ratio” value was inactive: 0.107.
The result for EDC4 C54 (UniProt Q6P2E9) reads inactive: 0.498.
As to C19orf54 C271 (UniProt Q5BKX5), the “log2 ratio” value is inactive: -0.0359.
As to HSDL2 C218 (UniProt Q6YN16), the “log2 ratio” value was inactive: 0.323.
Consider PRPF8 C435 (UniProt Q6P2Q9), for which the “log2 ratio” value is active: 1.24.
Regarding ATAD3B C616 (UniProt Q5T9A4), the “log2 ratio” value is inactive: 0.463.
Turning to UniProt Q5TAX3_C776, the “log2 ratio” value was inactive: 0.631.
As for NIPBL C1876 (UniProt Q6KC79), the “log2 ratio” value is inactive: 0.17.
Consider DOCK11 C409 (UniProt Q5JSL3), for which the “log2 ratio” value is inactive: -0.0544.
Regarding TAF2 C1093 (UniProt Q6P1X5), the “log2 ratio” value is inactive: 0.285.
Regarding INTS5 C58 (UniProt Q6P9B9), the “log2 ratio” value is inactive: 0.376.
With DNTTIP2 C618 (UniProt Q5QJE6), the “log2 ratio” value was inactive: 0.081.
As to ZNF326 C12 (UniProt Q5BKZ1), the “log2 ratio” value is inactive: 0.582.
The figure for AARS2 C750 (UniProt Q5JTZ9) is inactive: 0.846; for SASS6 C525 (UniProt Q6UVJ0) it is inactive: 0.191; for NIPBL C304 (UniProt Q6KC79) it is inactive: 0.612.
In the case of CEP170 C30 (UniProt Q5SW79), the “log2 ratio” value was inactive: 0.0235.
Take NIPBL C573 (UniProt Q6KC79): the “log2 ratio” value is inactive: 0.479.
Consider ZNF318 C2025 (UniProt Q5VUA4), for which the “log2 ratio” value is inactive: 0.32.
As to EDC4 C976 (UniProt Q6P2E9), the “log2 ratio” value was inactive: 0.224.
For UniProt Q5H9R7_C844, the “log2 ratio” value was inactive: 0.379.
For RRP12 C31 (UniProt Q5JTH9), the “log2 ratio” value was active: 1.26.
As to UniProt Q5JSZ5_C525, the “log2 ratio” value was inactive: 0.706.
The result for RNF20 C905 (UniProt Q5VTR2) reads inactive: 0.383; that for CEP170 C967 (UniProt Q5SW79), inactive: 0.211; that for UniProt Q5VSL9_C769, inactive: 0.622.
For the target SPECC1 C740 (UniProt Q5M775), the “log2 ratio” value was inactive: -0.0117.
On to UniProt Q5UCC4_C49, for which the “log2 ratio” value was inactive: 0.246.
Turning to UniProt Q6IQ49_C415, the “log2 ratio” value was inactive: 0.108.
Regarding PDE12 C119 (UniProt Q6L8Q7), the “log2 ratio” value is inactive: 0.84.
The figure for HP1BP3 C412 (UniProt Q5SSJ5) is inactive: -0.0369.
